The experiment addresses C-terminally HA-tagged wild type human Ulk4 (Ulk4-WT–HA) (human) (UniProt Q96C45). Nature of the experiment: co-IP; HEK293T cells transfected with Fg-tagged and HA-tagged Ulk4 constructs, immunoprecipitation and western blot with the indicated antibodies (which tag was precipitated is not given). Background: A western blot detects proteins with antibodies after separation by electrophoresis.

These are yes or no findings as the source states them, for the method shown. In cells and extracts the contact can be indirect. Some results given as binding are weak or reduced against the parent protein; the word gives no strength. Where a sequence is shown, tags or fusion partners need not be part of it.

In paper PMC12148026 one finds binding data, which are given here for 2 molecules.

B1: C-terminal fragment of Ulk4-EE from amino acids 1004–1275, Flag-tagged (C272-EE–Fg) (domain or fragment, UniProt Q96C45 1004-1275)
chain: VPAYALKLLVAMTEHNPEFERLVEESKLIPLIFEVTLEHQESILGNTMQSVIALLSNLVACKDSNMELLYEQGLVSHICNLLTETATLCLDVDNKNNNEMAAPLLFSLLDILHSMLTYTSGIVRLALQAQKSGSGEDPQAAEDLLLLNRPLTDLISLLIPLLPNEDPEIFDVSSKCLSILVQLYGGENPDSLSPENVEIFAHLLTSKEDPKEQKLLLRILRRMITSNEKHLESLKNAGSLLRALERLAPGSGSFADSAVAPLALEILQAVGH
Regarding B1, the binding entry is given as “binds”.

B2: Flag-tagged Ulk4-EE-KR (Ulk4-EE-KR–Fg), human Ulk4 T1021E/T1023E/K1030R (protein, UniProt Q96C45 1-1275)
chain: MENFILYEEIGRGSKTVVYKGRRKGTINFVAILCTDKCKRPEITNWVRLTREIKHKNIVTFHEWYETSNHLWLVVELCTGGSLKTVIAQDENLPEDVVREFGIDLISGLHHLHKLGILFCDISPRKILLEGPGTLKFSNFCLAKVEGENLEEFFALVAAEEGGGDNGENVLKKSMKSRVKGSPVYTAPEVVRGADFSISSDLWSLGCLLYEMFSGKPPFFSESISELTEKILCEDPLPPIPKDSSRPKASSDFINLLDGLLQRDPQKRLTWTRLLQHSFWKKAFAGADQESSVEDLSLSRNTMECSGPQDSKELLQNSQSRQAKGHKSGQPLGHSFRLENPTEFRPKSTLEGQLNESMFLLSSRPTPRTSTAVEVSPGEDMTHCSPQKTSPLTKITSGHLSQQDLESQMRELIYTDSDLVVTPIIDNPKIMKQPPVKFDAKILHLPTYSVDKLLFLKDQDWNDFLQQVCSQIDSTEKSMGASRAKLNLLCYLCVVAGHQEVATRLLHSPLFQLLIQHLRIAPNWDIRAKVAHVIGLLASHTAELQENTPVVEAIVLLTELIRENFRNSKLKQCLLPTLGELIYLVATQEEKKKNPRECWAVPLAAYTVLMRCLREGEERVVNHMAAKIIENVCTTFSAQSQGFITGEIGPILWYLFRHSTADSLRITAVSALCRITRHSPTAFQNVIEKVGLNSVINSLASAICKVQQYMLTLFAAMLSCGIHLQRLIQEKGFVSTIIRLLDSPSTCIRAKAFLVLLYILIYNREMLLLSCQARLVMYIERDSRKTTPGKEQQSGNEYLSKCLDLLICHIVQELPRILGDILNSLANVSGRKHPSTVQVKQLKLCLPLMPVVLHLVTSQVFRPQVVTEEFLFSYGTILSHIKSVDSGETNIDGAIGLTASEEFIKITLSAFEAIIQYPILLKDYRSTVVDYILPPLVSLVQSQNVEWRLFSLRLLSETTSLLVNQEFGDGKEKASVDSDSNLLALIRDVLLPQYEHILLEPDPVPAYALKLLVAMTEHNPEFERLVEESRLIPLIFEVTLEHQESILGNTMQSVIALLSNLVACKDSNMELLYEQGLVSHICNLLTETATLCLDVDNKNNNEMAAPLLFSLLDILHSMLTYTSGIVRLALQAQKSGSGEDPQAAEDLLLLNRPLTDLISLLIPLLPNEDPEIFDVSSKCLSILVQLYGGENPDSLSPENVEIFAHLLTSKEDPKEQKLLLRILRRMITSNEKHLESLKNAGSLLRALERLAPGSGSFADSAVAPLALEILQAVGH
Regarding B2, the binding result is reported as “binds”.
